Experiment [1] has as its target IFT20 (human (endogenous in Jurkat)) (UniProt Q8IY31). As to the kind of experiment: co-IP; postnuclear supernatants (2 mg) of Jurkat T cells (control and IFT20KD; also IFT20-GFP or ΔCC IFT20-GFP transfectants) lysed in 0.5% Triton X-100, 20 mM Tris-HCl pH 8, 150 mM NaCl; IP 2 h at 4°C with anti-IFT20, anti-ATG16L1 or anti-BECLIN 1 antibody and protein A-Sepharose; immunoblot.

Protein sequences, listed by entry. Tags and fused reporters are not part of them.
UniProt Q676U5: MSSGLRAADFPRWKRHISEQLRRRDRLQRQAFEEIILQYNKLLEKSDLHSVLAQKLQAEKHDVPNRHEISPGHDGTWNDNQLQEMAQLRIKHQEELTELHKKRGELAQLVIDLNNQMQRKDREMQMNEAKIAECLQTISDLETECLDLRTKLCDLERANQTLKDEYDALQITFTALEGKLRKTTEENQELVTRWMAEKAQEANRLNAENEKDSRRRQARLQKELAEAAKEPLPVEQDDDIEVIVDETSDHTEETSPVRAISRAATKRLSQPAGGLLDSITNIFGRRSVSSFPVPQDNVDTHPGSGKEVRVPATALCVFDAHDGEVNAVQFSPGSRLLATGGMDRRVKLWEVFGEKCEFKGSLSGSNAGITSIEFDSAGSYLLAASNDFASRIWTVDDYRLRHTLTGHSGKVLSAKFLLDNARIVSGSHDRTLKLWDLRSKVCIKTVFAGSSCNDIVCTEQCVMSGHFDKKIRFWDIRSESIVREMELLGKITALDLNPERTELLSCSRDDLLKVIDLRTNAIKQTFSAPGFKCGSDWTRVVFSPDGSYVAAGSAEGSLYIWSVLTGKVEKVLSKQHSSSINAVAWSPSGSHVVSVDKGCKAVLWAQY
UniProt Q15643: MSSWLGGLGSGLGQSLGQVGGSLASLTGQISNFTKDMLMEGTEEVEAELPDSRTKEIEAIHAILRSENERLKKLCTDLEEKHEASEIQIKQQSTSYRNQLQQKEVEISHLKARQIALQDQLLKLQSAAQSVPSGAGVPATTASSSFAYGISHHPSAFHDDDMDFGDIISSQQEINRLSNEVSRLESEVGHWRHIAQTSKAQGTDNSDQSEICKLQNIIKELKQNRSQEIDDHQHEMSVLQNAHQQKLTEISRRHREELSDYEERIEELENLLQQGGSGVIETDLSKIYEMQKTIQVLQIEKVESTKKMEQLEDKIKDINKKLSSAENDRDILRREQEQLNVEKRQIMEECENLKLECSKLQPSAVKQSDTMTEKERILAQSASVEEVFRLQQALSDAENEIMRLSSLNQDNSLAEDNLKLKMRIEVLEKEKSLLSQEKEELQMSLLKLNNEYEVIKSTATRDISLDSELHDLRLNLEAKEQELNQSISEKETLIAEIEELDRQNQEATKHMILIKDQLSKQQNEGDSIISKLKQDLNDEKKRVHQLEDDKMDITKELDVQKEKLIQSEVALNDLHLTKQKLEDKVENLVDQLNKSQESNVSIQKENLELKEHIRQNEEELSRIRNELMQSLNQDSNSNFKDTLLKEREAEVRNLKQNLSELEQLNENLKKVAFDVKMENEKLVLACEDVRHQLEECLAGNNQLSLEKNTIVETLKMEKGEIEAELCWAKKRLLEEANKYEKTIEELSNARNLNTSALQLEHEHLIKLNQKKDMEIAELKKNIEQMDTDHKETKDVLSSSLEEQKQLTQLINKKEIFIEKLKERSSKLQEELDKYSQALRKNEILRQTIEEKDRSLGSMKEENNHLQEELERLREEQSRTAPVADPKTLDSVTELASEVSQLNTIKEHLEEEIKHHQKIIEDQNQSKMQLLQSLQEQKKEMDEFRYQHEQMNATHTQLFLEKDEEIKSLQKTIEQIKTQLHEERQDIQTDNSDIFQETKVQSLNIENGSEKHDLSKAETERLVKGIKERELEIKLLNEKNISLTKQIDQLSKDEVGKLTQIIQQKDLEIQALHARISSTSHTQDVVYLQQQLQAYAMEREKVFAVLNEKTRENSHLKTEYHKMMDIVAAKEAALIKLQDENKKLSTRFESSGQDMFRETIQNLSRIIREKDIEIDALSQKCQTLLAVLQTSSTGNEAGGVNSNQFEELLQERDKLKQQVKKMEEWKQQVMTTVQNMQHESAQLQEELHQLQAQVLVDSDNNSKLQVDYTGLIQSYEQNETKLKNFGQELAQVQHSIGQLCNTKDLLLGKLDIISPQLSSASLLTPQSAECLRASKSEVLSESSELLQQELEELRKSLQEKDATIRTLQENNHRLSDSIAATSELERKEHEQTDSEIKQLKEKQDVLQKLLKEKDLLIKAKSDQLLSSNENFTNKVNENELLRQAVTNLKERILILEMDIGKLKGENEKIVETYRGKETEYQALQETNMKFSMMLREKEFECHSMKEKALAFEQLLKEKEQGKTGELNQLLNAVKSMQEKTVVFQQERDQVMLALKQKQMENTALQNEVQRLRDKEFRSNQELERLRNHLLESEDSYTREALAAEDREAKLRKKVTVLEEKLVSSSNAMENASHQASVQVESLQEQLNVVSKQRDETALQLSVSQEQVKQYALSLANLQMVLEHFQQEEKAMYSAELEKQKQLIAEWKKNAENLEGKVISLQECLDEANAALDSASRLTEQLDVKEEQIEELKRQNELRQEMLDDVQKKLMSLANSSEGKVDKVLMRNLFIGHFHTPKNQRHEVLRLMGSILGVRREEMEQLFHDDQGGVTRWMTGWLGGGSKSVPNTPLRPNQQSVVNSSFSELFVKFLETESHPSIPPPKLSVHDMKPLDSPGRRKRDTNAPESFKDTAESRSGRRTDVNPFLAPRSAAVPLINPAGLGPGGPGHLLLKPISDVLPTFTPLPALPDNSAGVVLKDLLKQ

Another experiment has as its target ΔCC IFT20-GST (UniProt Q8IY31). Put plainly: pull-down; recombinant GST fusion proteins on GSH-Sepharose incubated 2 h at 4°C with precleared postnuclear supernatants of Jurkat cells (5 x 10^7 cells/sample, 0.5% Triton X-100); 4 washes; immunoblot; only the target purified.
A further experiment has as its target IFT20-GST (UniProt Q8IY31). Described as above.
For another experiment, the target named is T1, CC IFT20-GST (UniProt Q8IY31).
T1 sequence: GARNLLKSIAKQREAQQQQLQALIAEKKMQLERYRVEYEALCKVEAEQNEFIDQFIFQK
The experiment is described as above.

These are yes or no findings as the source states them, for the method shown. In cells and extracts the contact can be indirect. Some results given as binding are weak or reduced against the parent protein; the word gives no strength. For some assays here: Tags and fused reporters may be left off the sequences shown.

In the case of ATG16L1 (from UniProt Q676U5 1-607), the binding entry (in experiment [1]; with ΔCC IFT20-GST; with IFT20-GST) was “binds” in each case.

As for GMAP210 (from UniProt Q15643 1-1979), the binding result with CC IFT20-GST and in the experiment with IFT20-GST was “binds” throughout.
